# From the supplement of paper PMC4635364
# Counter-ions that a name gives are not always drawn. The list shows a part of the results. Single values are uncertain here, since repeats match poorly.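 ReNCell VM, a human fetal ventral-midbrain neural progenitor line, was differentiated without mitogens. Blinded raters scored images stained for doublecortin (early neurons) or tyrosine hydroxylase (dopaminergic neurons) against untreated wells (0 = no change). Scores were averaged across repeats and both raters, and compounds averaging 2 or more were selected as hits for retesting.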
# Tests used:
# [1] = tested on: ReNCell VM; test: neuronal differentiation score (DCX+ cell fraction vs untreated, manual image score) (score (-3 to 3)); higher = more neuronal differentiation; conditions: 2 uM, 2 weeks
# [2] = tested on: ReNCell VM; test: dopaminergic neuron differentiation score (TH+ cell fraction vs untreated, manual image score) (score (0 to 3)); higher = more TH+ dopaminergic neuron differentiation; conditions: 2 uM, 4 weeks, BDNF 10 ng/ml + GDNF 10 ng/ml
compound,measurement,setting,value
COc1ccc2c(c1)OC1(O)COc3cc(OC)c(OC)cc3C1=C2 (centres undefined),neuronal differentiation score,[1]; library: Spectrum,inactive: 0
same,dopaminergic neuron differentiation score,[2]; library: Spectrum,inactive: 0
Cc1ccccc1C(=O)c1ccc(Nc2ccc(Br)cc2N)cc1Cl,neuronal differentiation score,[1]; library: Tocriscreen,inactive: 0
same,dopaminergic neuron differentiation score,[2]; library: Tocriscreen,inactive: 0
CC(=O)OCC(=O)[C@@]12N=C(C)O[C@@H]1C[C@H]1[C@@H]3CCC4=CC(=O)C=C[C@]4(C)[C@H]3[C@@H](O)C[C@@]12C,neuronal differentiation score,[1]; library: Spectrum,inactive: 1
same,dopaminergic neuron differentiation score,[2]; library: Spectrum,inactive: 0
CC1=CC(=O)C(C(C)C)=CC1=O,neuronal differentiation score,[1]; library: Spectrum,inactive: 0
same,dopaminergic neuron differentiation score,[2]; library: Spectrum,inactive: 0
O=c1c2ccccc2oc2ccccc12,neuronal differentiation score,[1]; library: Spectrum,inactive: 0
same,dopaminergic neuron differentiation score,[2]; library: Spectrum,inactive: 0
O=C(N[C@H](CO)[C@H](O)c1ccc([N+](=O)[O-])cc1)C(Cl)Cl,neuronal differentiation score,[1]; library: Spectrum,inactive: 0
same,dopaminergic neuron differentiation score,[2]; library: Spectrum,inactive: 0
CCN(CC)CCOCCOC(=O)C1(c2ccccc2)CCCC1,neuronal differentiation score,[1]; library: Spectrum,inactive: 0
same,dopaminergic neuron differentiation score,[2]; library: Spectrum,inactive: 0
Cc1c(C)c2c(c(C)c1O)CCC(C)(C(=O)O)O2 (centres undefined) [Trolox],neuronal differentiation score,[1]; library: Prestwick,inactive: 0
same,dopaminergic neuron differentiation score,[2]; library: Prestwick,inactive: 0
CC=CC1=C(C(=O)O)N2C(=O)[C@@H](NC(=O)[C@H](N)c3ccc(O)cc3)[C@H]2SC1,neuronal differentiation score,[1]; library: Spectrum,inactive: 0
same,dopaminergic neuron differentiation score,[2]; library: Spectrum,inactive: 0
CC(C)(C)NC(=O)[C@@H]1C[C@@H]2CCCC[C@@H]2CN1C[C@@H](O)[C@H](Cc1ccccc1)NC(=O)[C@H](CC(N)=O)NC(=O)c1ccc2ccccc2n1 [Saquinavir mesylate],neuronal differentiation score,[1]; library: Prestwick,inactive: 0
same,dopaminergic neuron differentiation score,[2]; library: Prestwick,inactive: 1
CC(=O)O[C@H]1CC[C@@]2(C)[C@@H](CC[C@@H]3[C@@H]2CC(=O)[C@]2(C)[C@@H]4[C@H](C[C@@H]32)O[C@]2(CC[C@@H](C)CO2)[C@H]4C)C1,neuronal differentiation score,[1]; library: Spectrum,inactive: 0
same,dopaminergic neuron differentiation score,[2]; library: Spectrum,inactive: 0
NC(=O)c1cccnc1,neuronal differentiation score,[1]; library: Spectrum,inactive: 0
same,dopaminergic neuron differentiation score,[2]; library: Spectrum,inactive: 0
COc1ccc2cc(CCC(C)=O)ccc2c1,neuronal differentiation score,[1]; library: Spectrum,inactive: 0
same,dopaminergic neuron differentiation score,[2]; library: Spectrum,inactive: 0
CN1CCC[C@@H]1Cc1c[nH]c2ccc(CCS(=O)(=O)c3ccccc3)cc12,neuronal differentiation score,[1]; library: Spectrum,inactive: 0
same,dopaminergic neuron differentiation score,[2]; library: Spectrum,inactive: 0
O=C(O)CN(CCN(CC(=O)O)CC(=O)O)CCN(CC(=O)O)CC(=O)O [Pentetic acid],neuronal differentiation score,[1]; library: Prestwick,inactive: 0
same,dopaminergic neuron differentiation score,[2]; library: Prestwick,inactive: 0
"O=C1CN(/N=C/c2ccc(-c3ccc([N+](=O)[O-])cc3)o2)C(=O)N1 [Dantrolene, sodium salt]",neuronal differentiation score,[1]; library: Tocriscreen,inactive: 0
same,dopaminergic neuron differentiation score,[2]; library: Tocriscreen,inactive: 0
Oc1c(Cl)cc(Cl)c2cccnc12 [Chloroxine],neuronal differentiation score,[1]; library: Prestwick,inactive: 0
same,dopaminergic neuron differentiation score,[2]; library: Prestwick,inactive: 0
c1ccc(-c2[nH]ncc2-c2ccnc3ccccc23)nc1,neuronal differentiation score,[1]; library: Tocriscreen,inactive: 0
same,dopaminergic neuron differentiation score,[2]; library: Tocriscreen,active: 3
O=c1cc[nH]c(=S)[nH]1,neuronal differentiation score,[1]; library: Spectrum,inactive: 0
same,dopaminergic neuron differentiation score,[2]; library: Spectrum,inactive: 0
C#CCCCCCCCCCCCC(O)CC(O)COC(C)=O (centres undefined),neuronal differentiation score,[1]; library: Spectrum,inactive: 0
same,dopaminergic neuron differentiation score,[2]; library: Spectrum,inactive: 0
Cc1c(C)c2c(c(C)c1O)CCC(C)(C(=O)O)O2 (centres undefined),neuronal differentiation score,[1]; library: Spectrum,inactive: 0
same,dopaminergic neuron differentiation score,[2]; library: Spectrum,inactive: 0
COc1c2c(cc3c1c(=O)c1ccccc1n3C)OCO2 [Evoxanthine],neuronal differentiation score,[1]; library: Phytochemical,inactive: 0
same,dopaminergic neuron differentiation score,[2]; library: Phytochemical,inactive: 0
COc1ccc2c(c1)c(CC(=O)O)c(C)n2C(=O)c1ccccc1 [1-benzoyl-5-methoxy-2-methylindole-3-acetic acid],neuronal differentiation score,[1]; library: LOPAC,inactive: 1
same,dopaminergic neuron differentiation score,[2]; library: LOPAC,inactive: 0
CCCCCCCCCCCCCCCC[N+](C)(C)CCN(Cc1ccc(OC)cc1)c1ncccn1,neuronal differentiation score,[1]; library: Spectrum,inactive: 0
same,dopaminergic neuron differentiation score,[2]; library: Spectrum,inactive: 1
COc1cccc(C(=O)NCCN2CCN(c3ccc(Cl)cc3)CC2)c1,neuronal differentiation score,[1]; library: LOPAC,inactive: 0
same,dopaminergic neuron differentiation score,[2]; library: LOPAC,inactive: 0
CO[C@H]1C[C@H](O[C@H]2[C@H](C)O[C@@H](O[C@@H]3/C(C)=C/C[C@@H]4C[C@@H](C[C@]5(C=C[C@H](C)[C@@H](C6CCCCC6)O5)O4)OC(=O)[C@@H]4C=C(C)[C@@H](O)[C@H]5OC/C(=C\C=C\[C@@H]3C)[C@]54O)C[C@@H]2OC)O[C@@H](C)[C@@H]1O,neuronal differentiation score,[1]; library: Spectrum,inactive: 0
same,dopaminergic neuron differentiation score,[2]; library: Spectrum,inactive: 1
Cc1cc(O)c2c(c1)C(=O)c1cc(O)cc(O)c1C2=O [Emodin],neuronal differentiation score,[1]; library: LOPAC,inactive: 0
same,dopaminergic neuron differentiation score,[2]; library: LOPAC,inactive: 0
CNCC(O)c1ccc(O)c(O)c1 (centres undefined) [Racepinephrine HCl],neuronal differentiation score,[1]; library: Prestwick,inactive: 0
same,dopaminergic neuron differentiation score,[2]; library: Prestwick,inactive: 0
CC(C)NC[C@H](O)COc1ccc(CC(N)=O)cc1 [(S)-(-)-Atenolol],neuronal differentiation score,[1]; library: Prestwick,inactive: 0
same,dopaminergic neuron differentiation score,[2]; library: Prestwick,inactive: 0
COc1ccc(-c2cc3ccccc3c(=O)o2)cc1 [3-(4-methoxy-phenyl)-isochromen-1-one],neuronal differentiation score,[1]; library: Natural,inactive: 0
same,dopaminergic neuron differentiation score,[2]; library: Natural,inactive: 0
COc1cc2ccc(=O)oc2cc1O [Scopoletin],neuronal differentiation score,[1]; library: Phytochemical,inactive: 0
same,dopaminergic neuron differentiation score,[2]; library: Phytochemical,inactive: 0
CCOC(=O)c1ccc(OC(=O)CCCCCNC(=N)N)cc1 [Gabexate mesilate],neuronal differentiation score,[1]; library: Prestwick,inactive: 0
same,dopaminergic neuron differentiation score,[2]; library: Prestwick,inactive: 0

# 2 entries from above, with tabs:
compound	measurement	setting	value
NC(=O)c1cccnc1	dopaminergic neuron differentiation score	[2]; library: Spectrum	inactive: 0
COc1ccc2cc(CCC(C)=O)ccc2c1	neuronal differentiation score	[1]; library: Spectrum	inactive: 0
